Residue numbers refer to the chain shown, from its start. No constants are given. Whether binding was seen depends on the method and setting. Some entries that bind do so weakly or less than the wild type.
B1: H-ABU 10 (antibody, V domains shown)
VL: DIVMTQSPDSLAVSLGERATINCKSSQSLVSSSQKNYLAWYQQKPGQPPKLLIYWASVRDSGVPDRFSGSGSGTDFTLTISSLQAEDVAVYYCQQYYSYPLTFGQGTKVEIK
VH: QVQLVQSGAEVKKPGASVKVSCKASGYTFTDNYINWVRQAPGQRLEWMGWIYLGSGNTKYNEKFKGRVTITRDTSASTAYMELSSLRSEDTAVYYCARREERGFAPWGQGTLVTVSS
B2: H-ABU 11 (antibody, V domains shown)
VH: B1 VH with N32F, P106Y
VL: B1 VL with V30L, V58T, Y96F
B3: H-ABU 7 (antibody, V domains shown)
VH: B1 VH with N32H, E101D, P106Y
VL: B1 VL with V30L
B4: H-ABU 41 (antibody, V domains shown)
VL: DVQITQSPSSLSASVGDRVTITCRASKNIGKYLAWFQQKPGKTNKLLIYSGSTLQSGIPSRFSGSGSGTDFTLTISSLQPEDFATYYCQQHNEYPYTFGGGTKVEIK
VH: QVQLQQSGAEVKKPGASVKVSCKTSGYSFTNYWMQWVRQAPGQGLEWIGMIDPSDSESRLNQKFKDKATLTVDKSTSTAYMELSSLRSEDTAVYYCARRGSPMITSFAYWGQGTLVTVSS
B5: H-ABU 43 (antibody, V domains shown)
VH: B4 VH with Q5V, I48M, K67R, A68V, L70M, V72R, K74T
VL: B4 VL
B6: H-ABU 38 (antibody, V domains shown)
VH: B4 VH with Q5V, T24A, S28T, K67R, K74T, A79V
VL: B4 VL
B7: H-ABU 39 (antibody, V domains shown)
VH: B4 VH with Q5V, K67R, K74T
VL: B4 VL
B8: H-ABU 40 (antibody, V domains shown)
VH: B4 VH
VL: B4 VL with T43A, N44P, L46S, I58V
B9: H-ABU 4 (antibody, V domains shown)
VH: B1 VH with N32I, T58V, E101D, P106Y
VL: B1 VL with V30L, S33N, N36Y, V58T, Y96F
B10: H-ABU 6 (antibody, V domains shown)
VH: B1 VH with N32F, P106Y
VL: B1 VL with V30L, S33N, Y96F
B11: C-ABU4 (antibody, human IgG4 S228P, kappa, V domains shown)
VH: QVQLQQSGPQLVRPGASVKISCKTSGYSFTNYWMQWVKQRPGQGLEWIGMIDPSDSESRLNQKFKDKATLTVDKSSSTAYMQLSSPTFEDSAVYYCARRGSPMITSFAYWGQGTLVTVSA
VL: DVQITQSPSFLAASPGETITINCRASKNIGKYLAWFQEKPGKTNKLLIYSGSTLQSGIPSRFSGSGSGTDFTLTISSLEPEDFAIYYCQQHNEYPYTFGGGTKLEIKR
B12: C-ABU2 (antibody, V domains shown)
VH: QVQLQQPGAELVRPGASVKLSCKASGYTFTNYWMNWFKQRPEQGLEWIGRIDPYDSETLYNQKFKDKAILTVDKSSSTAYMQLSSLTSEDSAVYYCAGGGKGGFGYWGQGTLVTVSA
VL: DVLMTQTPLSLPVSLGDQASISCRSSQSIVYSNGNTYLEWYLQKPGQSPKLLIYKVSNRFSGVPDRFSGSGSGTDFTLKISRVEAEDLGVYYCFQGSHVPYTFGGGTKLEIK
B13: ABU20 (Fab) (Fab, V domains shown)
VH: RGKVQESGPGLVKPSQSLSLTCSVTGYSITSGYYWNWIRQFPGNKLEWMGYINYDGSNNYNPSLKNRISITRDTSKNQFFLKLNSVTTEDTATYYCARGYYYGSSYGYWYFDVWGTGTTVTVSS
VL: DAVVTQESALTTSPGETVTLTCRSSTGAVTTNNYANWVQEKPDHLFTGLIGGTNNRAPGVPARFSGSLIGDKAALTITGAQTEDEAIYFCALWYSNHLVFGGGTKLTVL
B14: ABU11 (Fab) (Fab, V domains shown)
VH: EVQLQQPGAELVRPGSSVKLSCKASGYSFTTYWMHWVKQRPGQGLEWIGNINPSSGDSHYNEKFKSKATLTVDKSSSTAYLQLNSLTSEDSAVYYCARDYYGAYWGHGTLVTVSA
VL: DIQMTQSPASLSASVGETVTITCRASENVYSYLAWYQQKQGKSPQLLVYKANTLAEGVPSRFSGSGSGTQFSLKINSLQPEDFGTYYCQHHYGTPLTFGSGTKLEIK

The chains behind the UniProt entries cited, without tags or fusion partners. Where a name states a change or a piece, a line headed by the entry shows the natural chain unless it says otherwise.
UniProt Q08722: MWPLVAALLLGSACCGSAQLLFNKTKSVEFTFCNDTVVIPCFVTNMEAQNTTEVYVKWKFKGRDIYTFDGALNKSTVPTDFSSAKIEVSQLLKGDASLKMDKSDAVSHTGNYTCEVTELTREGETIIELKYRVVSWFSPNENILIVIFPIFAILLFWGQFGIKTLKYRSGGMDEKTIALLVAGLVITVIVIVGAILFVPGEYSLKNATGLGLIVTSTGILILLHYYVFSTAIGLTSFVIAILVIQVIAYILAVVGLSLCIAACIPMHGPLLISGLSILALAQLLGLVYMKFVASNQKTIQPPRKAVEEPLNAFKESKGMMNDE

The binders below were run against human CD47 expressed on cells (CD47 expressing CHO cells, Jurkat, HL60, DLD1, Raji) (human) (UniProt Q08722) (assay: flow cytometry on human red blood cells, donor 2, MFI).

| binding | Binder |
| --- | --- |
| binds | B1 |
| binds | B2 |
| binds | B3 |
| binds | B4 |
| binds | B5 |

These binders were tested against human CD47 expressed on cells (CD47 expressing CHO cells, Jurkat, HL60, DLD1, Raji) (human) (UniProt Q08722) (assay: IC50 (nM) as grade, SIRP-alpha blocking on Raji cells; legend +: <0.6 nM).

| binding | Binder |
| --- | --- |
| binds | B6 |
| binds | B4 |
| binds | B5 |
| binds | B7 |
| binds | B8 |

Each binder was assayed against human CD47 expressed on cells (CD47 expressing CHO cells, Jurkat, HL60, DLD1, Raji) (human) (UniProt Q08722) (assay: flow cytometry blocking assay on Raji cells, SIRPα is the blocked ligand, MFI).

| binding | Binder |
| --- | --- |
| binds | B9 |
| binds | B1 |
| binds | B2 |
| binds | B10 |
| binds | B3 |

The binders below were run against human CD47 expressed on cells (CD47 expressing CHO cells, Jurkat, HL60, DLD1, Raji) (human) (UniProt Q08722) (assay: flow cytometry on human platelets, donor 2, MFI).

| binding | Binder |
| --- | --- |
| binds | B1 |
| binds | B2 |
| binds | B3 |
| binds | B4 |
| binds | B5 |

The binders below were run against human CD47 expressed on cells (CD47 expressing CHO cells, Jurkat, HL60, DLD1, Raji) (human) (UniProt Q08722) (assay: flow cytometry on CD47 expressing CHO cells, MFI (FL-4)).

| binding | Binder |
| --- | --- |
| binds | B11 |
| binds | B12 |

The binders below were run against human CD47 expressed on cells (CD47 expressing CHO cells, Jurkat, HL60, DLD1, Raji) (human) (UniProt Q08722) (assay: flow cytometry on human platelets, donor 1, MFI).

| binding | Binder |
| --- | --- |
| binds | B1 |
| binds | B2 |
| binds | B3 |
| binds | B4 |
| binds | B5 |

Each binder was assayed against human CD47 expressed on cells (CD47 expressing CHO cells, Jurkat, HL60, DLD1, Raji) (human) (UniProt Q08722) (assay: flow cytometry on DLD1 cells, Fab, frequency).

| binding | Binder |
| --- | --- |
| binds | B13 |
| binds | B14 |

The binders below were run against human CD47 expressed on cells (CD47 expressing CHO cells, Jurkat, HL60, DLD1, Raji) (human) (UniProt Q08722) (assay: flow cytometry on human red blood cells, donor 1, MFI).

| binding | Binder |
| --- | --- |
| binds | B1 |
| binds | B2 |
| binds | B3 |
| binds | B4 |
| binds | B5 |

Each binder was assayed against human CD47 expressed on cells (CD47 expressing CHO cells, Jurkat, HL60, DLD1, Raji) (human) (UniProt Q08722) (assay: flow cytometry SIRP-alpha blocking assay on Raji cells, MFI).

| binding | Binder |
| --- | --- |
| binds | B6 |
| binds | B4 |
| binds | B5 |
| binds | B7 |
| binds | B8 |

— patent US20200247886A1
